# Test results published in the supplement of paper PMC11006884.
# By UniProt entry, the sequences of proteins in these tests, tags left out. Where a name states a change or a piece, a line headed by the entry shows the natural chain unless it says otherwise.
# UniProt Q6PJG6: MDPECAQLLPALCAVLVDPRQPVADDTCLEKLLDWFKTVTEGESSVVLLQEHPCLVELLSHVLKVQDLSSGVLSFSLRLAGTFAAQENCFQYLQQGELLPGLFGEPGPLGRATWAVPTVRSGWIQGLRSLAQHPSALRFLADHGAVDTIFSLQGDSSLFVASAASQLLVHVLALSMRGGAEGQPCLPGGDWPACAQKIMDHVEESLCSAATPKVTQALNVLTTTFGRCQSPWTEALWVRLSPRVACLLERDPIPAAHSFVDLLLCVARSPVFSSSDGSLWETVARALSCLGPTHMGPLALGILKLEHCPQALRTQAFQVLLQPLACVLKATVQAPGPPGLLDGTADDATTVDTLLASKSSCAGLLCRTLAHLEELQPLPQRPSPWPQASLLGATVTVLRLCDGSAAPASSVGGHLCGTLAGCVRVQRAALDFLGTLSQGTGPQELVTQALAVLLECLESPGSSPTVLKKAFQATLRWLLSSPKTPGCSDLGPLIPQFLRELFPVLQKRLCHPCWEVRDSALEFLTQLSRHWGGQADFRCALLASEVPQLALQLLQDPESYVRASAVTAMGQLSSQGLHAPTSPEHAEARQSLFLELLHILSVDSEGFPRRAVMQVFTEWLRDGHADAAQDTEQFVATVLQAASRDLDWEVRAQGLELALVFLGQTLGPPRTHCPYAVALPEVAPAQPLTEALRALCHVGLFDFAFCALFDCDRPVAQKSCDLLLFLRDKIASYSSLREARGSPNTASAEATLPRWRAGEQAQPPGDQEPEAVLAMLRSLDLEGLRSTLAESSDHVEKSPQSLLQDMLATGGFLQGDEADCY
# UniProt Q6P9B9, whole entry, looked up: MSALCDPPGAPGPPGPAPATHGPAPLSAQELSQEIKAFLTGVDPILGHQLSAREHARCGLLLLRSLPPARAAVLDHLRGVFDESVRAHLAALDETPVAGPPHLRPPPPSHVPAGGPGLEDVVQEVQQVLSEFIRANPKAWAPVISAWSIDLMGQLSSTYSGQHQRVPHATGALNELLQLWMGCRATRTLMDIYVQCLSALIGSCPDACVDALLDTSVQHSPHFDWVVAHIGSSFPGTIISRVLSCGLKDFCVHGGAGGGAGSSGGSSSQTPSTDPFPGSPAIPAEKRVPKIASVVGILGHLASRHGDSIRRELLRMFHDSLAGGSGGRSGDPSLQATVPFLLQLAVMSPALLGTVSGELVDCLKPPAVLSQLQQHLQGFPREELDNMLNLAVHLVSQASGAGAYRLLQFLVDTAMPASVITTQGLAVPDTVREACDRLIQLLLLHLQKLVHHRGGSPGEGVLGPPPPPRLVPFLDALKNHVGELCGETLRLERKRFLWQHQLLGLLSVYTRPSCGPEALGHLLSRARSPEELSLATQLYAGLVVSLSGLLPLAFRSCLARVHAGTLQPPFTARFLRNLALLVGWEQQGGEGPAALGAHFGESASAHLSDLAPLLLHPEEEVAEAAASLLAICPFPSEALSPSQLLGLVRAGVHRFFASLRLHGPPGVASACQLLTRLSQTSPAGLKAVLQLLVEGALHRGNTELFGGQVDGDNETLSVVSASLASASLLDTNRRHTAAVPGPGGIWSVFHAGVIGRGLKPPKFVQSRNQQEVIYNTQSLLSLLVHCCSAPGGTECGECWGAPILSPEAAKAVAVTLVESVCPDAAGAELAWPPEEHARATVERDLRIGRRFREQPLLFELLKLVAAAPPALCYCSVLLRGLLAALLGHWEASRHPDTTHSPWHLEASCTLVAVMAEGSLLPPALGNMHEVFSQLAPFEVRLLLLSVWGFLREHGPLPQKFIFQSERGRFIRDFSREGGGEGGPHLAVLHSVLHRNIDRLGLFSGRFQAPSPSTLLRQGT
# UniProt Q6DKJ4: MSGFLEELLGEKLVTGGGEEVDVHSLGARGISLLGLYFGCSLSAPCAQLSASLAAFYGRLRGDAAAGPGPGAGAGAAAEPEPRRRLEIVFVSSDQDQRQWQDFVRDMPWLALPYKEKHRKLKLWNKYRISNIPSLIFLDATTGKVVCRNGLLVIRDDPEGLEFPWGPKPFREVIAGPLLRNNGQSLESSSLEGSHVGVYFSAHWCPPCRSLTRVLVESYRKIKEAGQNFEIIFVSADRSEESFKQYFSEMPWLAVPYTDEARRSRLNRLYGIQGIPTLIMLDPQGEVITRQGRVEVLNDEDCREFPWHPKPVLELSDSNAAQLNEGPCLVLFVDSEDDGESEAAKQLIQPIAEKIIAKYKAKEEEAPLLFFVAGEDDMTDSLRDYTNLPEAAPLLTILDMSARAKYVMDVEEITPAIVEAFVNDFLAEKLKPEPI
# UniProt Q5TEU4: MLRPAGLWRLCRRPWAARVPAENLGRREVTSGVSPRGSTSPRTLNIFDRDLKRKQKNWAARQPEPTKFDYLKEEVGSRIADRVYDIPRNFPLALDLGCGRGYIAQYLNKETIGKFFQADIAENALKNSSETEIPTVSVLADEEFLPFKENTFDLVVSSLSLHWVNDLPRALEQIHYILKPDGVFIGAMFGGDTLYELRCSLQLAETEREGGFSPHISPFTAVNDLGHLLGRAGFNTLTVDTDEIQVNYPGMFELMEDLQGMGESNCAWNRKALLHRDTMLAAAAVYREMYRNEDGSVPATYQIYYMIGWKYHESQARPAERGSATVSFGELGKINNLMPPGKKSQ
# UniProt Q69YH5: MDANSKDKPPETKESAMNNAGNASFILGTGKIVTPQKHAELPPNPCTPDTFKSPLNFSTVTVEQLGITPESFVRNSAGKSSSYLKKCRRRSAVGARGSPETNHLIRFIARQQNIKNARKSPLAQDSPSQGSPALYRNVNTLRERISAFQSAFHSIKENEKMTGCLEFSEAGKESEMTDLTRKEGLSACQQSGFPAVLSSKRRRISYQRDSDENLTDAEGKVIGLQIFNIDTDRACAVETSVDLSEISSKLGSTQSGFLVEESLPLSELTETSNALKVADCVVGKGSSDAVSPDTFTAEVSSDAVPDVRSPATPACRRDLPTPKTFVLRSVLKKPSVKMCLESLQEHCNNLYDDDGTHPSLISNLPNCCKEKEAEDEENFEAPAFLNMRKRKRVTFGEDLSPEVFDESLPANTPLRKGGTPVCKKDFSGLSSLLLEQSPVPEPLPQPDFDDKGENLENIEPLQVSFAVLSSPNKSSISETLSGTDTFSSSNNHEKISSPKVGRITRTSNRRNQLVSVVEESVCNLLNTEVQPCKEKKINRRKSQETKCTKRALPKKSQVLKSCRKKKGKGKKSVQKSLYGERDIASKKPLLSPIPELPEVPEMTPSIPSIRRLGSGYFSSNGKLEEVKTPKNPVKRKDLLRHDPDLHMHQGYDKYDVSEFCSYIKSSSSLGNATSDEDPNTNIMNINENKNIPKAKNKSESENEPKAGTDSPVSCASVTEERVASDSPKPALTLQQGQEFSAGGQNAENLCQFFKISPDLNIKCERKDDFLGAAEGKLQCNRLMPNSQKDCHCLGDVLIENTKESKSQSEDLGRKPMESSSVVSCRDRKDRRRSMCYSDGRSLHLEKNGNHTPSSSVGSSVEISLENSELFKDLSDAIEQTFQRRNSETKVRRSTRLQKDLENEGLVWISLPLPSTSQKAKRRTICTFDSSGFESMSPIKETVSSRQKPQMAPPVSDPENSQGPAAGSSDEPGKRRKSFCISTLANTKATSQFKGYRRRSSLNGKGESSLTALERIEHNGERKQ
# UniProt Q5U5X0: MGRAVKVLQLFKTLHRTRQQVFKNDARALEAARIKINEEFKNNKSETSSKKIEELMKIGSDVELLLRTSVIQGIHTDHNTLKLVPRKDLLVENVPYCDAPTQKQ
# UniProt Q5UIP0: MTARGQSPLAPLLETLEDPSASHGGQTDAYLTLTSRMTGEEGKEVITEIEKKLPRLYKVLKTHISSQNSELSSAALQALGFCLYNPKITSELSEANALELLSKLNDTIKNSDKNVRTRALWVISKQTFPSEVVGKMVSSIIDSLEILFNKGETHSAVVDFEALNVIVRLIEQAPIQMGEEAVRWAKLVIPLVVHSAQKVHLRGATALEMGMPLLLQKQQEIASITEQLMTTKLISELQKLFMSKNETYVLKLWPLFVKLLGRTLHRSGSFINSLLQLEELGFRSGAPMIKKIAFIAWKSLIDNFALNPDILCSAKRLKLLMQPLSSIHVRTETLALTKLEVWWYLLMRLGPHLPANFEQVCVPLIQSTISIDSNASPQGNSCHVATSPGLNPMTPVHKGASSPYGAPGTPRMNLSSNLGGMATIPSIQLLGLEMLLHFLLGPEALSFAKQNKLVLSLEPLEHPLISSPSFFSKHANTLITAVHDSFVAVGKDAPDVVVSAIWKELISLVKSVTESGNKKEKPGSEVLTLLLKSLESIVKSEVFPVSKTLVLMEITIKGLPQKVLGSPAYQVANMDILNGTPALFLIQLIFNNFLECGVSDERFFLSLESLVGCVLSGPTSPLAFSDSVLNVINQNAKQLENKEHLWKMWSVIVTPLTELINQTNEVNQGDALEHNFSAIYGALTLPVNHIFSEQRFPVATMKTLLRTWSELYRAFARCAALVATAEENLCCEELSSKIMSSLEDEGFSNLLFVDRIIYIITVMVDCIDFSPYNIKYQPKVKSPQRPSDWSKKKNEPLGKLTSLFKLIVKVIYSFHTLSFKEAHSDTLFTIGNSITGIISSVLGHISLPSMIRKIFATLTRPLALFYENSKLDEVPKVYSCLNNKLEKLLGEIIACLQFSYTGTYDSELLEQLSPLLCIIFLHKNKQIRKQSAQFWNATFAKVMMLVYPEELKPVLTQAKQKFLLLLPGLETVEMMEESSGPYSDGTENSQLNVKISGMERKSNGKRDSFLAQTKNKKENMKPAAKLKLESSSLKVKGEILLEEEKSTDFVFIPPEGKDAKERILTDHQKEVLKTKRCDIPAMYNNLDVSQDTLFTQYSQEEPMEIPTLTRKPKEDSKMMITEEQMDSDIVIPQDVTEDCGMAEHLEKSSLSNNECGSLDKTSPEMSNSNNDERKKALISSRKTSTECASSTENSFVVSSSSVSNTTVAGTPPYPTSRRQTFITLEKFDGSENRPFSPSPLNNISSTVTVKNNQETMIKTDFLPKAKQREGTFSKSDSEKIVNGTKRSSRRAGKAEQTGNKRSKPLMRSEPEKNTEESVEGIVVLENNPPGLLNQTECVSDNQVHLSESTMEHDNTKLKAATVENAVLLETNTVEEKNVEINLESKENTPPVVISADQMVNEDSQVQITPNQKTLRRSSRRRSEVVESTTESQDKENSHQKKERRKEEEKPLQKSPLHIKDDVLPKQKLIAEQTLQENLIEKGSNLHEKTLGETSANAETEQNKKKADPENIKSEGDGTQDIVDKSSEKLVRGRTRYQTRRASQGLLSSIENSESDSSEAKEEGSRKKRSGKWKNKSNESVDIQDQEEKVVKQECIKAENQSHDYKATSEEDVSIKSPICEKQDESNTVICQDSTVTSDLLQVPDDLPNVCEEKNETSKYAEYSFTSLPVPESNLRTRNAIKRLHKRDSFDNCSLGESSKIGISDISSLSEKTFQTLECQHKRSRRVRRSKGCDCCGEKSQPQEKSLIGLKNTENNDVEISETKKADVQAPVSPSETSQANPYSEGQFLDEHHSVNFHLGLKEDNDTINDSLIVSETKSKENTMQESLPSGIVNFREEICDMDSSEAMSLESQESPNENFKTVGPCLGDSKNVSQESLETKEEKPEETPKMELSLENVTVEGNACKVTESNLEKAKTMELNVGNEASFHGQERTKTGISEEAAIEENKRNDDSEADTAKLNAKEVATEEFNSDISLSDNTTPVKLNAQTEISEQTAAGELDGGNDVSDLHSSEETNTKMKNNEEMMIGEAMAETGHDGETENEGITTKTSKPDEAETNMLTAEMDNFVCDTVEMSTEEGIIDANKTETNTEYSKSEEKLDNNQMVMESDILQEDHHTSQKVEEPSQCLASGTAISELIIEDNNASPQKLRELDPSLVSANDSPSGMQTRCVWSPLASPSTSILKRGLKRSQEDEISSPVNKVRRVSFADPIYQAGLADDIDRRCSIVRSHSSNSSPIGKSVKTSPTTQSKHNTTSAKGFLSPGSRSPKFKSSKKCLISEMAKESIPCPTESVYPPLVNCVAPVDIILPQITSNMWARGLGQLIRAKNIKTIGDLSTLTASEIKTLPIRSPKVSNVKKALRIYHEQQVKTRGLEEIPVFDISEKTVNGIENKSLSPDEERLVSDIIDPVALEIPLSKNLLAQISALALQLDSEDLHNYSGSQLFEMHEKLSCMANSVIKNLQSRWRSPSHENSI
# UniProt Q6P1Q9: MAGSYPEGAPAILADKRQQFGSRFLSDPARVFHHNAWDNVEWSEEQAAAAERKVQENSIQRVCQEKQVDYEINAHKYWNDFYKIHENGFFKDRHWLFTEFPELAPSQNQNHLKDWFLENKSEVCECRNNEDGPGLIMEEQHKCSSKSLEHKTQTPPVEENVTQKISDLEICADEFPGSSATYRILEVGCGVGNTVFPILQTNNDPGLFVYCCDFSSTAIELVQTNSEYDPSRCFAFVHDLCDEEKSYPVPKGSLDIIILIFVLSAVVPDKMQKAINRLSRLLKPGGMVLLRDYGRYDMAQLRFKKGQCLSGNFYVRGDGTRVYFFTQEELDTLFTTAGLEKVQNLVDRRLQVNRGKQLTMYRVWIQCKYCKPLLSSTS
# Only a part is listed here, and it is no random draw.
# Compound: COC(=O)C#Cc1ccccc1 [methyl 3-phenylpropiolate]
# Assay: log2 ratio of iodoacetamide-alkyne labeling of the cysteine site, DMSO over compound (competition); higher = stronger covalent engagement of the cysteine by the compound, active = 1 or more
# Conditions: 500 µM; treatment time 1 h; system: HEK293T cell lysate
# Method in brief: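 The log2 competition ratio per cysteine is defined as mean reporter intensity in control channels over mean reporter intensity in compound channels. Lysate from HEK293T cells (2 mg/mL) received electrophile (500 µM) or vehicle for 1 h at ambient temperature, followed by iodoacetamide alkyne for 1 h. Samples were clicked to sCIP-TMT reagents, pooled, trypsin-digested overnight at 37 °C, streptavidin-enriched, acid-eluted and run on Orbitrap Eclipse LC-MS/MS with FAIMS, with quantification in FragPipe. Three replicates with duplicate channels were used, and any cysteine quantified in only one replicate was excluded.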
row,Target,log2 ratio of iodoacetamide-alkyne labeling
1,UniProt Q6PJG6_C539,inactive: 0.0776
2,UniProt Q5TAX3_C994,inactive: 0.216
3,RRP12 C31 (UniProt Q5JTH9),active: 1.26
4,CWF19L1 C176 (UniProt Q69YN2),inactive: -0.136
5,MPRIP C831 (UniProt Q6WCQ1),inactive: 0.173
6,UniProt Q63HN8_C3008,inactive: 0.717
7,INTS5 C58 (UniProt Q6P9B9),inactive: 0.376
8,CNNM4 C736 (UniProt Q6P4Q7),inactive: 0.328
9,NXN C147 (UniProt Q6DKJ4),inactive: 0.326
10,SARM1 C311 (UniProt Q6SZW1),inactive: 0.5
11,ARID2 C1319 (UniProt Q68CP9),inactive: 0.463
12,INTS5 C514 (UniProt Q6P9B9),inactive: 0.389
13,NT5DC1 C179 (UniProt Q5TFE4),inactive: 0.191
14,UniProt Q5TEU4_C199,inactive: 0.272
15,ATAD2 C1246 (UniProt Q6PL18),inactive: 0.525
16,TOR1AIP1 C424 (UniProt Q5JTV8),inactive: 0.233
17,UniProt Q69YN4_C781,inactive: 0.121
18,DHRS13 C268 (UniProt Q6UX07),inactive: 0.106
19,EDC4 C4 (UniProt Q6P2E9),inactive: 0.2

row,Target,log2 ratio of iodoacetamide-alkyne labeling
1,CEP128 C915 (UniProt Q6ZU80),inactive: 0.335
2,CWF19L1 C160 (UniProt Q69YN2),inactive: 0.154
3,CDCA2 C188 (UniProt Q69YH5),inactive: 0.536
4,ARID2 C1512 (UniProt Q68CP9),inactive: 0.438
5,DENND4C C126 (UniProt Q5VZ89),inactive: 0.476
6,MAP1S C51 (UniProt Q66K74),inactive: 0.5
7,BCOR C1044 (UniProt Q6W2J9),inactive: 0.458
8,NIPBL C573 (UniProt Q6KC79),inactive: 0.479
9,UniProt Q5TAX3_C1226,inactive: 0.391
10,BCORL1 C617 (UniProt Q5H9F3),inactive: 0.399
11,LYRM7 C97 (UniProt Q5U5X0),inactive: 0.176
12,CIAPIN1 C237 (UniProt Q6FI81),inactive: 0.938
13,MAP1S C342 (UniProt Q66K74),inactive: 0.18
14,NCAPH2 C342 (UniProt Q6IBW4),active: 1.07
15,RIF1 C1139 (UniProt Q5UIP0),inactive: 0.189
16,METTL2B C171 (UniProt Q6P1Q9),inactive: 0.293
17,TTC37 C600 (UniProt Q6PGP7),inactive: 0.211
18,LARP1 C1054 (UniProt Q6PKG0),inactive: 0.863
19,UBR4 C1458 (UniProt Q5T4S7),inactive: 0.138

# Copied from the list.
# log2 ratio of iodoacetamide-alkyne labeling with MPRIP C831 (UniProt Q6WCQ1) reads inactive: 0.173
# log2 ratio of iodoacetamide-alkyne labeling with RRP12 C31 (UniProt Q5JTH9) reads active: 1.26
